From doi:10.1101/2025.10.14.682031
Results are given in words; binding and its absence hold for the method and conditions named. Binding seen in cells or lysates may run through a third protein. Some entries that bind do so weakly or less than the wild type. For part of these data: Where a sequence is shown, tags or fusion partners need not be part of it.

Chains of the proteins cited; added tags and fusions are not shown.
UniProt P17918: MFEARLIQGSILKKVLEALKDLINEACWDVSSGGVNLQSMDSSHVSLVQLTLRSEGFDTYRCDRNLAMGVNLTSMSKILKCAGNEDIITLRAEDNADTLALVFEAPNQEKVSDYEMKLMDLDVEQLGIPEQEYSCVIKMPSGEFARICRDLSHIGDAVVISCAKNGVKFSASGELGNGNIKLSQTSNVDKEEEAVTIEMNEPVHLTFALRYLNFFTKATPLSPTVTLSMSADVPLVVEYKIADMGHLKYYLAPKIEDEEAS
UniProt Q61510: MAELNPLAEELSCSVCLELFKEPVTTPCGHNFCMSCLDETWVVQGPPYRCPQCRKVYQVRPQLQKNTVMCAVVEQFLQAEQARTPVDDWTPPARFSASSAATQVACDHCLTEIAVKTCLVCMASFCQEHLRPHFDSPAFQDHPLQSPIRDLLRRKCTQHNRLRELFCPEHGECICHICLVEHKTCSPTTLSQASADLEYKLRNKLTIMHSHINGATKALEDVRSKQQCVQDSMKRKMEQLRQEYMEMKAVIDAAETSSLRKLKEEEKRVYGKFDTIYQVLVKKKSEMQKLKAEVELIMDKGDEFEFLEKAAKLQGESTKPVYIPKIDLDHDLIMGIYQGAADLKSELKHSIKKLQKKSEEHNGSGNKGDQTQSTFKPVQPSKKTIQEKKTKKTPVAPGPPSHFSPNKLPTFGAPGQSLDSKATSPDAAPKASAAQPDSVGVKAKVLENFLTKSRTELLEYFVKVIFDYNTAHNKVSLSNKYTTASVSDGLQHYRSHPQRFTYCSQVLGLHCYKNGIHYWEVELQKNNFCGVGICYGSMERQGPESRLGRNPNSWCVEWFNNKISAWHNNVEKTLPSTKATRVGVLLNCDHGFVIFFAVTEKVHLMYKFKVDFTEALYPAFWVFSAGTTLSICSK

Columns and labels:
[1] = target: PCNA (mouse (endogenous in KB1P-G3)) (UniProt P17918); assay: co-IP
[2] = target: TRIM25 (mouse (endogenous in KB1P-G3)) (UniProt Q61510); assay: proximity ligation
[3] = target: TRIM25 (mouse (endogenous in KB1P-G3)) (UniProt Q61510); assay: co-IP

| binding [1] | binding [2] | binding [3] | Binder |
| --- | --- | --- | --- |
| binds |  |  | Thousand And One Amino Acid Kinase 1 (TAOK1), endogenous in KB1P-G3 NT cells (protein, UniProt Q5F2E8 1-1001) MPSTNRAGSLKDPEIAELFFKEDPEKLFTDLREIGHGSFGAVYFARDVRTNEVVAIKKMSYSGKQSTEKWQDIIKEVKFLQRIKHPNSIEYKGCYLREHTAWLVMEYCLGSASDLLEVHKKPLQEVEIAAITHGALQGLAYLHSHTMIHRDIKAGNILLTEPGQVKLADFGSASMASPANSFVGTPYWMAPEVILAMDEGQYDGKVDVWSLGITCIELAERKPPLFNMNAMSALYHIAQNESPTLQSNEWSDYFRNFVDSCLQKIPQDRPTSEELLKHMFVLRERPETVLIDLIQRTKDAVRELDNLQYRKMKKLLFQEAHNGPAVEAQEEEEEQDHGVGRTGTVNSVGSNQSIPSMSISASSQSSSVNSLPDASDDKSELDMMEGDHTVMSNSSVIHLKPEEENYQEEGDPRTRASDPQSPPQVSRHKSHYRNREHFATIRTASLVTRQMQEHEQDSELREQMSGYKRMRRQHQKQLMTLENKLKAEMDEHRLRLDKDLETQRNNFAAEMEKLIKKHQAAMEKEAKVMANEEKKFQQHIQAQQKKELNSFLESQKREYKLRKEQLKEELNENQSTPKKEKQEWLSKQKENIQHFQAEEEANLLRRQRQYLELECRRFKRRMLLGRHNLEQDLVREELNKRQTQKDLEHAMLLRQHESMQELEFRHLNTIQKMRCELIRLQHQTELTNQLEYNKRRERELRRKHVMEVRQQPKSLKSKELQIKKQFQDTCKIQTRQYKALRNHLLETTPKSEHKAVLKRLKEEQTRKLAILAEQYDHSINEMLSTQALRLDEAQEAECQVLKMQLQQELELLNAYQSKIKMQAEAQHDRELRELEQRVSLRRALLEQKIEEEMLALQNERTERIRSLLERQAREIEAFDSESMRLGFSNMVLSNLSPEAFSHSYPGASSWSHNPTGGPGPHWGHPMGGTPQAWGHPMQGGPQPWGHPSGPMQGVPRGSSMGVRNSPQALRRTASGGRTEQGMSRSTSVTSQISNGSHMSYT |
|  | binds | binds | HA-tagged TAOK1 (pOZ-Taok1 rescue construct) (protein, UniProt Q5F2E8 1-1001) MPSTNRAGSLKDPEIAELFFKEDPEKLFTDLREIGHGSFGAVYFARDVRTNEVVAIKKMSYSGKQSTEKWQDIIKEVKFLQRIKHPNSIEYKGCYLREHTAWLVMEYCLGSASDLLEVHKKPLQEVEIAAITHGALQGLAYLHSHTMIHRDIKAGNILLTEPGQVKLADFGSASMASPANSFVGTPYWMAPEVILAMDEGQYDGKVDVWSLGITCIELAERKPPLFNMNAMSALYHIAQNESPTLQSNEWSDYFRNFVDSCLQKIPQDRPTSEELLKHMFVLRERPETVLIDLIQRTKDAVRELDNLQYRKMKKLLFQEAHNGPAVEAQEEEEEQDHGVGRTGTVNSVGSNQSIPSMSISASSQSSSVNSLPDASDDKSELDMMEGDHTVMSNSSVIHLKPEEENYQEEGDPRTRASDPQSPPQVSRHKSHYRNREHFATIRTASLVTRQMQEHEQDSELREQMSGYKRMRRQHQKQLMTLENKLKAEMDEHRLRLDKDLETQRNNFAAEMEKLIKKHQAAMEKEAKVMANEEKKFQQHIQAQQKKELNSFLESQKREYKLRKEQLKEELNENQSTPKKEKQEWLSKQKENIQHFQAEEEANLLRRQRQYLELECRRFKRRMLLGRHNLEQDLVREELNKRQTQKDLEHAMLLRQHESMQELEFRHLNTIQKMRCELIRLQHQTELTNQLEYNKRRERELRRKHVMEVRQQPKSLKSKELQIKKQFQDTCKIQTRQYKALRNHLLETTPKSEHKAVLKRLKEEQTRKLAILAEQYDHSINEMLSTQALRLDEAQEAECQVLKMQLQQELELLNAYQSKIKMQAEAQHDRELRELEQRVSLRRALLEQKIEEEMLALQNERTERIRSLLERQAREIEAFDSESMRLGFSNMVLSNLSPEAFSHSYPGASSWSHNPTGGPGPHWGHPMGGTPQAWGHPMQGGPQPWGHPSGPMQGVPRGSSMGVRNSPQALRRTASGGRTEQGMSRSTSVTSQISNGSHMSYT |
